Experimental data: PubChem BioAssay AID1259405 (NCATS, 2018)
In all, the deposit lists about 50,000 reagents; below is an unselected part. In the full data, about 4,000 (8%) were called active. 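Mouse siRNA library applied to hamster cells; one well for each siRNA.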 Entries without a mark were called inactive. Reagents against one gene are numbered here.

Aim: 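Knock-downs that lift recombinant protein yield in hamster ovary cells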 (primary screen)
Cells: Chinese hamster CHO-K1 ovary cells with stable secreted eGFP expression
Reagents: single siRNA against mouse genes, 0.8 pmol siRNA per well (2 µl of 400 nM stock)
Time to read-out: 3 days
Detection: 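Percent of the per-plate non-targeting control median for intracellular GFP per well by laser scanning cytometry and for cell viability by ATP luminescence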
Reading the numbers: GFP, % of control: higher = more GFP per well, higher productivity; viability (ATP), % of control: higher = more viable cells (more ATP)
Call rule: 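a knock-down is called active if GFP reaches 120% or more of non-targeting control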

Slc34a2 #1 — GFP, % of control: 84.5; viability (ATP), % of control: 113
Slc34a2 #2 — GFP, % of control: 74; viability (ATP), % of control: 77.7
Slc34a2 #3 — GFP, % of control: 84.6; viability (ATP), % of control: 60.5
Mrpl55 (mitochondrial ribosomal protein L55) #1 — GFP, % of control: 85.8; viability (ATP), % of control: 62.6
Mrpl55 (mitochondrial ribosomal protein L55) #2 — GFP, % of control: 105; viability (ATP), % of control: 90.3
Mrpl55 (mitochondrial ribosomal protein L55) #3 — GFP, % of control: 108; viability (ATP), % of control: 40.4
Gna11 (guanine nucleotide binding protein, alpha 11) #1 — GFP, % of control: 91.6; viability (ATP), % of control: 113
Gna11 (guanine nucleotide binding protein, alpha 11) #2 — GFP, % of control: 90; viability (ATP), % of control: 71.8
Gna11 (guanine nucleotide binding protein, alpha 11) #3 — GFP, % of control: 41.6; viability (ATP), % of control: 40.3
Ube2f (ubiquitin-conjugating enzyme E2F (putative)) #1 — GFP, % of control: 39.3; viability (ATP), % of control: 44.1
Ube2f (ubiquitin-conjugating enzyme E2F (putative)) #2 — GFP, % of control: 113; viability (ATP), % of control: 101
Ube2f (ubiquitin-conjugating enzyme E2F (putative)) #3 — GFP, % of control: 110; viability (ATP), % of control: 107
Lpin2 (lipin 2) #1 — GFP, % of control: 73.1; viability (ATP), % of control: 70.5
Lpin2 (lipin 2) #2 — GFP, % of control: 75.3; viability (ATP), % of control: 84
Lpin2 (lipin 2) #3 — GFP, % of control: 50.2; viability (ATP), % of control: 54.6

Continued (4 carried over from the part before).
Ube2f (ubiquitin-conjugating enzyme E2F (putative)) #3 — GFP, % of control: 110; viability (ATP), % of control: 107
Lpin2 (lipin 2) #1 — GFP, % of control: 73.1; viability (ATP), % of control: 70.5
Lpin2 (lipin 2) #2 — GFP, % of control: 75.3; viability (ATP), % of control: 84
Lpin2 (lipin 2) #3 — GFP, % of control: 50.2; viability (ATP), % of control: 54.6
Klra3 (killer cell lectin-like receptor, subfamily A, member 3) #1 — GFP, % of control: 37.1; viability (ATP), % of control: 38.1
Klra3 (killer cell lectin-like receptor, subfamily A, member 3) #2 — GFP, % of control: 72.9; viability (ATP), % of control: 60.2
Klra3 (killer cell lectin-like receptor, subfamily A, member 3) #3 — GFP, % of control: 107; viability (ATP), % of control: 42.9
Cdc34 (cell division cycle 34) #1 — GFP, % of control: 56.6; viability (ATP), % of control: 76.4
Cdc34 (cell division cycle 34) #2 — GFP, % of control: 83.4; viability (ATP), % of control: 69.4
Cdc34 (cell division cycle 34) #3 — GFP, % of control: 61.9; viability (ATP), % of control: 117
Tpm4 (tropomyosin 4) #1 — GFP, % of control: 77; viability (ATP), % of control: 60
Tpm4 (tropomyosin 4) #2 — GFP, % of control: 97.2; viability (ATP), % of control: 85.3
Ankrd7 (ankyrin repeat domain 7) #1 — GFP, % of control: 56.3; viability (ATP), % of control: 96.5
Ankrd7 (ankyrin repeat domain 7) #2 — GFP, % of control: 64.2; viability (ATP), % of control: 76.4
Ankrd7 (ankyrin repeat domain 7) #3 — GFP, % of control: 59.6; viability (ATP), % of control: 50
Nefl (neurofilament, light polypeptide) #1 — GFP, % of control: 89.5; viability (ATP), % of control: 72.5
Nefl (neurofilament, light polypeptide) #2 — GFP, % of control: 79.5; viability (ATP), % of control: 79.4
